Laboratory results published in the supplement of paper PMC10849652.
The other results are listed elsewhere or left out. Residues, ends and D or L forms follow the SMILES beside them. *: point of attachment. Cbz = O=C(OCc1ccccc1)*

Amino acid sequences for entries named in this document (tags omitted). A change or cut given only in a name is not applied to a line headed by its entry.
UniProt Q9NPA8: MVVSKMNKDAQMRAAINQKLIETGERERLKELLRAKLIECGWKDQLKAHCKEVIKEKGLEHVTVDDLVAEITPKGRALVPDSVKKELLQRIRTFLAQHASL
UniProt Q9NZN4: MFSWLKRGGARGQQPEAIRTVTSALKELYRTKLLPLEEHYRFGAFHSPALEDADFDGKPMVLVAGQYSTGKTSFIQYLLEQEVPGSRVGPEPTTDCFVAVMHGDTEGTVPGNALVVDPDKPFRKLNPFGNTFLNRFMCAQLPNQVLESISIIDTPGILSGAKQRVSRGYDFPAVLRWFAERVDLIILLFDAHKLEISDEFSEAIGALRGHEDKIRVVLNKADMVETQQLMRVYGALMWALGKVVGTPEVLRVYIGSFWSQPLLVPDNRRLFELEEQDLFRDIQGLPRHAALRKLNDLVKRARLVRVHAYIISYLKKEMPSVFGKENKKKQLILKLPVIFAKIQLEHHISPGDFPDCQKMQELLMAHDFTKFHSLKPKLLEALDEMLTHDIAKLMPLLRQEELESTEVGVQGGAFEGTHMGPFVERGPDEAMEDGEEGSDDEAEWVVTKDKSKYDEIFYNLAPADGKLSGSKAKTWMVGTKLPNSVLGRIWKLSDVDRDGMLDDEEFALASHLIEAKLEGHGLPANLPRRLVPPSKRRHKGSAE
UniProt P55884, whole entry, looked up: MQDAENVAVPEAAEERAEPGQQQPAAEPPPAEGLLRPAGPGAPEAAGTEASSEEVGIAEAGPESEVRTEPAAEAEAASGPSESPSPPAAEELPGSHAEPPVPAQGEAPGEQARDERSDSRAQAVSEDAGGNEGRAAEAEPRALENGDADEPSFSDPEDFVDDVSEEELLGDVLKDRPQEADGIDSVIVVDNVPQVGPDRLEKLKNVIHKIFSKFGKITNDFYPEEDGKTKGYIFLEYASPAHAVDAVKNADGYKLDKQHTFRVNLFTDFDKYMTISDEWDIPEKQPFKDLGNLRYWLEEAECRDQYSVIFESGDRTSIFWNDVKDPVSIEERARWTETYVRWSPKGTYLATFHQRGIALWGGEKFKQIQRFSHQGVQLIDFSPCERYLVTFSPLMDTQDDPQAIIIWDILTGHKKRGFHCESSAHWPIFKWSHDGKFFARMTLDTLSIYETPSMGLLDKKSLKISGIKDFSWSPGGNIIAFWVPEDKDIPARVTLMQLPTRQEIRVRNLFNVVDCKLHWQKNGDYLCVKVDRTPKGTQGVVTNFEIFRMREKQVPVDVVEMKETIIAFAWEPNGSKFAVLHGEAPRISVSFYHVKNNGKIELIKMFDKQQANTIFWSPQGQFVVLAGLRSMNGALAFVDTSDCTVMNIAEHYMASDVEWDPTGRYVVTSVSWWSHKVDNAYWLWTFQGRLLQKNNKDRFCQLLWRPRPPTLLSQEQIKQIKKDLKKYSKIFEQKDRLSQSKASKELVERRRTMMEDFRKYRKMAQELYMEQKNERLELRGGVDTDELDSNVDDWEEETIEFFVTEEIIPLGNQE
UniProt Q13542: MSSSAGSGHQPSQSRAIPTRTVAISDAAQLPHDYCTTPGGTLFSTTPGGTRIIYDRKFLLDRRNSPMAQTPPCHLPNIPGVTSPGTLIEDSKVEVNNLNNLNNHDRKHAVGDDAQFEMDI
UniProt Q9HC35: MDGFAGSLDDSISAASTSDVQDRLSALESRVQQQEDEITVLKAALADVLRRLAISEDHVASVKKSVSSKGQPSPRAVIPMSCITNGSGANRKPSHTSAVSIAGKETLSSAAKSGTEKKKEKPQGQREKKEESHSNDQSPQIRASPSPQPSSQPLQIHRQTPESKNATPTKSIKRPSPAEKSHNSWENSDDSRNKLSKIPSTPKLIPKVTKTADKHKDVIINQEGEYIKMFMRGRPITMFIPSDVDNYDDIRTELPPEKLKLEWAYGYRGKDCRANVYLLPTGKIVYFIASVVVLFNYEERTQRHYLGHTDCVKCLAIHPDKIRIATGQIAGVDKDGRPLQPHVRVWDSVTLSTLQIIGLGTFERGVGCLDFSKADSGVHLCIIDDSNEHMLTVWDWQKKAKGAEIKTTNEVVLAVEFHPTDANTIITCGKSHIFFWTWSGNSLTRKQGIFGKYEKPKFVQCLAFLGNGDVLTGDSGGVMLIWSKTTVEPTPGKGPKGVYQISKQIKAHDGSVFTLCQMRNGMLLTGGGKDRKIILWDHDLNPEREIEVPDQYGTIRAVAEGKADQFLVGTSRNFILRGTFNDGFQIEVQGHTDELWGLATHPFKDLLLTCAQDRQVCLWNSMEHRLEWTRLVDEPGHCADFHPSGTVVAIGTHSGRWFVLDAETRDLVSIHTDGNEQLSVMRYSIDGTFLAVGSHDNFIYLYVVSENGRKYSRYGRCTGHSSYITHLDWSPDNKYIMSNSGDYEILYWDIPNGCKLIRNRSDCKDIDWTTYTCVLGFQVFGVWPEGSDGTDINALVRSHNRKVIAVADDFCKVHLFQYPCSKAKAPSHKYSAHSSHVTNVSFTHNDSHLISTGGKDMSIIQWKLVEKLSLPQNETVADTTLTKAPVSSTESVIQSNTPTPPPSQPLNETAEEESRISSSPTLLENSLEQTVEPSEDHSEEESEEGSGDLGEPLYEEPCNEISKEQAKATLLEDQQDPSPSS
UniProt Q7L5Y1: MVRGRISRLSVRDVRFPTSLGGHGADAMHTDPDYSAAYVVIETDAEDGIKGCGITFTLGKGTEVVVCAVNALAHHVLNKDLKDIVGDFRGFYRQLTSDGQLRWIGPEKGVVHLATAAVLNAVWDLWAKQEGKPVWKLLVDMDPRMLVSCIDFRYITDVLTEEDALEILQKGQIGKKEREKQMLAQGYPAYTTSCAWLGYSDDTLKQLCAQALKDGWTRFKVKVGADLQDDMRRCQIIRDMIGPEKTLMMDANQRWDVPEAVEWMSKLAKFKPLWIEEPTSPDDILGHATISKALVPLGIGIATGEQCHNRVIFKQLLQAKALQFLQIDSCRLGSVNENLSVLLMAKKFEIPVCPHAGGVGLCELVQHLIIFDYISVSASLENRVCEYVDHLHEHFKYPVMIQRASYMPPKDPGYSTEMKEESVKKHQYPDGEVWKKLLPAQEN
UniProt Q15369, whole entry, looked up: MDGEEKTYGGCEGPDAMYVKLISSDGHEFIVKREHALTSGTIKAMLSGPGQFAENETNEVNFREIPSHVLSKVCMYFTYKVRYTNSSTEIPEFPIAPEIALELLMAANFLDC
UniProt P68104, whole entry, looked up: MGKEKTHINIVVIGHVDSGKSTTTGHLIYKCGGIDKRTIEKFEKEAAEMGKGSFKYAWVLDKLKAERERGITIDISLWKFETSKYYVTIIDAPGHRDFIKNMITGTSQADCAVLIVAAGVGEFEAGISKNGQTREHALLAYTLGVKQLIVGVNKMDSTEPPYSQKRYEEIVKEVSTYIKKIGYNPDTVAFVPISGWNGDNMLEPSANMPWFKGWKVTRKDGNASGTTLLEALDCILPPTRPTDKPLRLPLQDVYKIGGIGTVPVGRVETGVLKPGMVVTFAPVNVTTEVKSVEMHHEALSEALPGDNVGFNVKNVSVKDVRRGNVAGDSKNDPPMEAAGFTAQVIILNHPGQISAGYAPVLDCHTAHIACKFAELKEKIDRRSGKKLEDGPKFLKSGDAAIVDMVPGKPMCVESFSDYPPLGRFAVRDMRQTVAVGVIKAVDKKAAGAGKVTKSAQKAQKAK
UniProt P50402: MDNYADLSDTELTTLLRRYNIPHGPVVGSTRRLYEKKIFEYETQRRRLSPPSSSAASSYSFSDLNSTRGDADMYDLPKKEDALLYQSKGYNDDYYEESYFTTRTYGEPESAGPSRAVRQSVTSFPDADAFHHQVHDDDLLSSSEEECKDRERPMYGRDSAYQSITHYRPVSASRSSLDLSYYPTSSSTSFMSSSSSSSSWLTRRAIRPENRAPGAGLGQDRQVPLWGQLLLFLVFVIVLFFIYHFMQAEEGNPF
UniProt Q8N3D4: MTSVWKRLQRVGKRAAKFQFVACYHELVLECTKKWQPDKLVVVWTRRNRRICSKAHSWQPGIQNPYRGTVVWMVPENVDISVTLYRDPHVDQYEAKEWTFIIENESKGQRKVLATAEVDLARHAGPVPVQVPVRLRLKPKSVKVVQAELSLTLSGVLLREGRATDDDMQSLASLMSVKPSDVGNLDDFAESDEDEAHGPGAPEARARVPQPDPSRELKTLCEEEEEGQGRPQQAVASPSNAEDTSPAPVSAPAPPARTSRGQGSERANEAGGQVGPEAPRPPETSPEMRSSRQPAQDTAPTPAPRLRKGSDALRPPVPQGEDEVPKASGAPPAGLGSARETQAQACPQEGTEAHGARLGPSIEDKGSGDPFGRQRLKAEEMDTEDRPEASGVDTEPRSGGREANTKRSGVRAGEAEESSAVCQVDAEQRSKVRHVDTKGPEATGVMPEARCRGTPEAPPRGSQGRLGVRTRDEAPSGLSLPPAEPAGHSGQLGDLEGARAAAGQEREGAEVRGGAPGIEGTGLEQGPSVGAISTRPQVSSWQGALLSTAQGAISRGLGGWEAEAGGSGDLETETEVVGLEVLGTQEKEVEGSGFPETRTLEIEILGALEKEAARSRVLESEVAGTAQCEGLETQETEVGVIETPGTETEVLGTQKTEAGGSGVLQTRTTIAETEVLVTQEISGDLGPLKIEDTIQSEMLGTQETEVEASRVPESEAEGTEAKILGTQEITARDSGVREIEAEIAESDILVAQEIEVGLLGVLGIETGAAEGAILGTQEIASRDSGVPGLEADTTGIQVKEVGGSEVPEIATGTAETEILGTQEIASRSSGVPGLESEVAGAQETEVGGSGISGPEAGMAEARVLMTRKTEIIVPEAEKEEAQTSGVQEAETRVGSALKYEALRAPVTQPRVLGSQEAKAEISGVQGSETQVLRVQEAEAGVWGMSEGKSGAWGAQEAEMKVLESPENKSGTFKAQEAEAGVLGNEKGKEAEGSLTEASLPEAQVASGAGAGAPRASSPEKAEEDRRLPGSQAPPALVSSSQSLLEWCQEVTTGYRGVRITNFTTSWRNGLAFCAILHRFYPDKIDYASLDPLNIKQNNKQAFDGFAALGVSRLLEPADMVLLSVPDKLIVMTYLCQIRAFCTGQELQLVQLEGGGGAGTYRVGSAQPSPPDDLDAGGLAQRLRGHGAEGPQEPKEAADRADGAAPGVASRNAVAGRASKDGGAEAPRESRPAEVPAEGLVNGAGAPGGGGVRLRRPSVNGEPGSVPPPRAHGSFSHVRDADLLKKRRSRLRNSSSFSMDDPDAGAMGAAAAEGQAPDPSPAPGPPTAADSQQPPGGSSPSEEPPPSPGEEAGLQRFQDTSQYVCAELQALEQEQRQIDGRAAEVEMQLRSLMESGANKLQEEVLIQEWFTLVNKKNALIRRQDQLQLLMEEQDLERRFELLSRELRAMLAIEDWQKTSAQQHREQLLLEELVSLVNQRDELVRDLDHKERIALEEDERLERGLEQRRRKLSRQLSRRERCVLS
UniProt Q15029: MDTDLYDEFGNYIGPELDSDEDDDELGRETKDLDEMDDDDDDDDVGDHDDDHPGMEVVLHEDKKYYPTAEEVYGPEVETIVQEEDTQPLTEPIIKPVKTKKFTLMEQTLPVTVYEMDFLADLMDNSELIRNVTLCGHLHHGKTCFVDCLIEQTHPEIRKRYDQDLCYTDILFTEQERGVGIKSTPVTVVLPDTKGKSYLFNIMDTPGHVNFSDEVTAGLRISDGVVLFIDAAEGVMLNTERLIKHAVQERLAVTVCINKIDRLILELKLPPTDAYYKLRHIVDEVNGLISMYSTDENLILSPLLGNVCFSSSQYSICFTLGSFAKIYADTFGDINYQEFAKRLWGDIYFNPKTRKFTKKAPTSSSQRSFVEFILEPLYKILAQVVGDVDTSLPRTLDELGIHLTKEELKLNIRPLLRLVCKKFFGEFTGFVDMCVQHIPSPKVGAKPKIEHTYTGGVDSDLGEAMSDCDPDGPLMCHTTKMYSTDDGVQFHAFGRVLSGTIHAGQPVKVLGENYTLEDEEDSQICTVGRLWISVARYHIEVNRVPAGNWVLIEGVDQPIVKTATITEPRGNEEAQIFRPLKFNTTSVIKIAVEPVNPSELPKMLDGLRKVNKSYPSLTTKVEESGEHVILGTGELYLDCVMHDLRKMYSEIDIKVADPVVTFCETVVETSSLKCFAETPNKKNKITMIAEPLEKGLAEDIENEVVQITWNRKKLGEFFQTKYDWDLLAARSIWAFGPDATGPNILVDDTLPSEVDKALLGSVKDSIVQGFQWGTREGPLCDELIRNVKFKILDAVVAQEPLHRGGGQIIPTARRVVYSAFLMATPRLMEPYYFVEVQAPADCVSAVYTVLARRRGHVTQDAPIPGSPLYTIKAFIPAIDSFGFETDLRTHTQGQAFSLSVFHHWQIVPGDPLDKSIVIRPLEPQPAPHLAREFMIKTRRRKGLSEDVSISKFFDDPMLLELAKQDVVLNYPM

Tests used:
Assay in all cases: log2 fold change, soluble protein after heating vs DMSO (PISA); higher = thermal stabilisation; K562 cells, 10 uM, 30 min; active = over 0.2 and 3.5 SD of the protein, either way, in both replicates (recomputed)
erlotinib = compound: C#Cc1cccc(Nc2ncnc3cc(OCCOC)c(OCCOC)cc23)c1 [erlotinib]
In short: (§1)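 For each measurement, 10 μM compound was applied for 30 min to K562 cells at 2×10^6 cells/mL. Aliquots were heated for 3 min across 48°C-58°C, pooled, and extracted in PBS with 0.5% NP-40 at 4°C; the supernatant after 21,000xg for 90 min was soluble protein. This was quantified by TMTpro 16plex LC-MS/MS with channel sums equalised, and thermal stability was reported relative to control samples from duplicates, on a log2 fold-change scale.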

[1] = compound: C/C(=N\NC(=O)C1=CC(=CC=C1)S(=O)(=O)N2CCOCC2)/C3=C(C=CC(=C3)Cl)O
In short: as §1

[2] = compound: C1=CC(=C(C=C1Cl)C2=NC3=NC=CN=C3C(=N2)NC4=CC=NC=C4)F
In short: as §1

[3] = compound: C1=CC(=CC=C1C2=NC3=C(N2)C=C(C=C3)C(=O)N)OC4=CC=C(C=C4)Cl
In short: as §1

[4] = compound: C1=CC2=C(C=CC(=C2)/C=C\3/C(=O)NC(=NCC4=CC=CS4)S3)N=C1
In short: as §1

[5] = compound: C1=CC2=NC=CN=C2C=C1/C=C/3\C(=O)NC(=O)S3
In short: as §1

[6] = compound: C1=CC=C(C=C1)C2=NC(=C(N2)C3=CC=NC=C3)C4=CC(=C(C=C4)Cl)O
In short: as §1

[7] = compound: C1=CC=C2C(=C1)C3=NNC4=CC=CC(=C43)C2=O
In short: as §1

[8] = compound: C1CCN(C1)C(=O)NC2=CC=CC(=C2)NC3=NC=C(C(=N3)NCCC4=CN=CN4)Br
In short: as §1

[9] = compound: C1CN(CCC1(CC2=CC=C(C=C2)Cl)N)C3=NC=NC4=C3C=CN4
In short: as §1

IRAK-1-4 Inhibitor I = compound: C1COCCN1CCN2C3=CC=CC=C3N=C2NC(=O)C4=CC(=CC=C4)[N+](=O)[O-] [IRAK-1-4 Inhibitor I]
In short: as §1

ibrutinib = compound: C=CC(=O)N1CCC[C@@H](n2nc(-c3ccc(Oc4ccccc4)cc3)c3c(N)ncnc32)C1 [ibrutinib]
In short: as §1

[10] = compound: CC(=O)c1cnc2ccc(-c3cc(Cl)c(O)c(Cl)c3)nc2c1N[C@H]1CC[C@H](CN(C)C)CC1
In short: as §1

ralimetinib = compound: CC(C)(C)Cn1c(N)nc2ccc(-c3[nH]c(C(C)(C)C)nc3-c3ccc(F)cc3)nc21 [ralimetinib]
In short: as §1

[11] = compound: CC(C)(O)CC(=O)NCCn1ccc2ncnc(Nc3ccc(Oc4cccc(C(F)(F)F)c4)c(Cl)c3)c21
In short: as §1

[12] = compound: CC(C)C1=C2N=C(C=C(N2N=C1)NCC3=CC=CC=C3)NCCCCCCN
In short: as §1

[13] = compound: CC(C)C[C@@H](C=O)NC(=O)[C@H](CC(C)C)NC(=O)[C@H](CC(C)C)NC(=O)OCc1ccccc1
In short: as §1

pinometostat = compound: CC(C)N(C[C@H]1O[C@@H](n2cnc3c(N)ncnc32)[C@H](O)[C@@H]1O)[C@H]1C[C@@H](CCc2nc3cc(C(C)(C)C)ccc3[nH]2)C1 [pinometostat]
In short: as §1

[14] = compound: CC1=C(C(CC(=O)N1)C2=CC=C(C=C2)C(F)(F)F)C(=O)NC3=C(C=C4C(=C3)C=NN4)F
In short: as §1

[15] = compound: CC1=C(C2=C(C=C1)C(=O)C3=CC=CC=C3N2CCCN)C
In short: as §1

Measured: log2 fold change

ENY2 (UniProt Q9NPA8)
inactive: erlotinib -0.024 | [1] 0 | [2] 0.039 | [3] 0.035 | [4] 0.052 | [5] 0.01 | [6] -0.027 | [7] -0.059 | [8] 0.003 | [9] -0.078 | IRAK-1-4 Inhibitor I -0.017 | ibrutinib 0.002 | [10] -0.01 | ralimetinib -0.075 | [11] -0.006 | [12] 0.044 | [13] -0.058 | pinometostat -0.024 | [14] 0.04 | [15] 0.051

EIF4H (UniProt Q15056)
inactive: erlotinib 0.104 | [1] 0.008 | [2] 0.009 | [3] 0.029 | [4] -0.015 | [5] 0.019 | [6] -0.003 | [7] 0.031 | [8] 0.005 | [9] 0.033 | IRAK-1-4 Inhibitor I 0.02 | ibrutinib -0.033 | [10] -0.025 | ralimetinib -0.013 | [11] 0.011 | [12] -0.06 | [13] 0.037 | pinometostat -0.064 | [14] 0.034 | [15] -0.043

EPB41L1 (UniProt Q9H4G0)
inactive: erlotinib -0.036 | [1] -0.083 | [2] -0.006 | [3] 0.067 | [4] -0.071 | [5] 0.009 | [6] 0.005 | [7] 0.066 | [8] -0.075 | [9] 0.002 | IRAK-1-4 Inhibitor I -0.002 | ibrutinib 0.013 | [10] -0.026 | ralimetinib 0.036 | [11] -0.005 | [12] -0.196 | [13] -0.043 | pinometostat -0.02 | [14] 0.023 | [15] 0.185

EHD2 (UniProt Q9NZN4)
inactive: erlotinib -0.044 | [1] 0.025 | [2] 0.013 | [3] -0.077 | [4] 0.007 | [5] -0.01 | [6] -0.003 | [7] 0.01 | [8] -0.008 | [9] 0.041 | IRAK-1-4 Inhibitor I 0.009 | ibrutinib 0.008 | [10] -0.038 | ralimetinib 0.003 | [11] -0.033 | [12] 0.002 | [13] 0.036 | pinometostat -0.044 | [15] 0.001

EIF3B isoform 2 (UniProt P55884)
inactive: erlotinib 0.024 | [1] 0 | [2] -0.113 | [3] -0.015 | [4] 0.021 | [5] 0.031 | [6] -0.015 | [7] -0.031 | [8] -0.003 | [9] -0.164 | IRAK-1-4 Inhibitor I -0.127 | ibrutinib -0.059 | [10] 0.032 | ralimetinib 0.089 | [11] 0 | [12] -0.196 | [13] 0.075 | pinometostat 0.209 | [14] 0.046 | [15] -0.093

EIF4G1 isoform 8 (UniProt Q04637)
inactive: erlotinib -0.092 | [1] 0.128 | [2] -0.065 | [3] 0.011 | [4] -0.036 | [5] -0.089 | [6] -0.099 | [7] -0.246 | [8] -0.197 | [9] -0.28 | IRAK-1-4 Inhibitor I -0.124 | ibrutinib -0.148 | [10] -0.3 | ralimetinib 0.057 | [11] -0.053 | [12] -0.387 | [13] 0.046 | pinometostat 0.149 | [15] 0.018

EIF4EBP2 (UniProt Q13542)
inactive: erlotinib -0.068 | [1] 0.022 | [2] 0.154 | [3] 0.033 | [4] -0.059 | [5] 0.099 | [6] 0.079 | [7] 0.038 | [8] -0.059 | [9] -0.05 | IRAK-1-4 Inhibitor I -0.139 | ibrutinib 0.038 | [10] -0.106 | ralimetinib -0.165 | [11] -0.238 | [12] 0.141 | [13] 0.012 | pinometostat 0.044 | [14] 0.022 | [15] 0.066

EML4 (UniProt Q9HC35)
inactive: erlotinib 0.032 | [1] -0.033 | [2] -0.055 | [3] 0.002 | [4] 0.013 | [5] -0.005 | [6] 0.014 | [7] 0.041 | [8] -0.043 | [9] -0.204 | IRAK-1-4 Inhibitor I -0.053 | ibrutinib -0.016 | [10] 0.033 | ralimetinib 0.167 | [11] -0.029 | [12] -0.17 | [13] 0.139 | pinometostat 0.232 | [14] -0.02 | [15] -0.129

ENO1 isoform 2 (UniProt P06733)
inactive: erlotinib 0.18 | [1] -0.341 | [2] 0.142 | [3] -0.024 | [4] 0.089 | [5] -0.029 | [6] 0.091 | [7] -0.069 | [8] -0.037 | [9] 0.107 | IRAK-1-4 Inhibitor I 0.045 | ibrutinib 0.126 | [10] 0.019 | ralimetinib 0.06 | [11] -0.035 | [12] 0.183 | [13] 0.069 | pinometostat 0.02 | [14] -0.062 | [15] 0.038

ENOSF1 (UniProt Q7L5Y1)
inactive: erlotinib 0 | [1] 0.008 | [2] 0.021 | [3] 0.02 | [4] -0.065 | [5] -0.051 | [6] 0.028 | [7] 0.035 | [8] 0.032 | [9] 0.042 | IRAK-1-4 Inhibitor I 0.025 | ibrutinib 0.038 | [10] -0.036 | ralimetinib -0.01 | [11] -0.087 | [12] -0.021 | [13] -0.043 | pinometostat -0.02 | [14] 0.004 | [15] -0.019

ELOC (UniProt Q15369)
inactive: erlotinib -0.055 | [1] 0.124 | [2] 0.066 | [3] 0.017 | [4] 0.117 | [5] 0.048 | [6] 0.075 | [7] 0.009 | [8] -0.016 | [9] -0.024 | IRAK-1-4 Inhibitor I 0.017 | ibrutinib -0.011 | [10] -0.018 | ralimetinib -0.027 | [11] -0.07 | [12] -0.032 | [13] -0.042 | pinometostat 0.008 | [15] 0.165

EEF1A1 (UniProt P68104)
inactive: erlotinib -0.083 | [1] 0.119 | [2] 0.051 | [3] 0.062 | [4] -0.062 | [5] -0.343 | [6] 0.195 | [7] 0.135 | [8] -0.055 | [9] 0.122 | IRAK-1-4 Inhibitor I 0.133 | ibrutinib 0.121 | [10] 0.05 | ralimetinib 0.133 | [11] -0.052 | [12] -0.037 | [13] -0.019 | pinometostat -0.028 | [15] -0.178

EMD (UniProt P50402)
inactive: erlotinib 0.025 | [1] 0.002 | [2] -0.078 | [3] 0.056 | [4] 0.008 | [5] 0.033 | [6] -0.011 | [7] -0.072 | [8] 0.031 | [9] 0.074 | IRAK-1-4 Inhibitor I 0.039 | ibrutinib 0.009 | [10] -0.021 | ralimetinib -0.004 | [11] 0.028 | [12] -0.114 | [13] 0.034 | pinometostat 0.013 | [15] -0.042

4 consecutive records already listed, for reference:
EHD2 (UniProt Q9NZN4)
inactive: erlotinib -0.044 | [1] 0.025 | [2] 0.013 | [3] -0.077 | [4] 0.007 | [5] -0.01 | [6] -0.003 | [7] 0.01 | [8] -0.008 | [9] 0.041 | IRAK-1-4 Inhibitor I 0.009 | ibrutinib 0.008 | [10] -0.038 | ralimetinib 0.003 | [11] -0.033 | [12] 0.002 | [13] 0.036 | pinometostat -0.044 | [15] 0.001

EIF3B isoform 2 (UniProt P55884)
inactive: erlotinib 0.024 | [1] 0 | [2] -0.113 | [3] -0.015 | [4] 0.021 | [5] 0.031 | [6] -0.015 | [7] -0.031 | [8] -0.003 | [9] -0.164 | IRAK-1-4 Inhibitor I -0.127 | ibrutinib -0.059 | [10] 0.032 | ralimetinib 0.089 | [11] 0 | [12] -0.196 | [13] 0.075 | pinometostat 0.209 | [14] 0.046 | [15] -0.093

EIF4G1 isoform 8 (UniProt Q04637)
inactive: erlotinib -0.092 | [1] 0.128 | [2] -0.065 | [3] 0.011 | [4] -0.036 | [5] -0.089 | [6] -0.099 | [7] -0.246 | [8] -0.197 | [9] -0.28 | IRAK-1-4 Inhibitor I -0.124 | ibrutinib -0.148 | [10] -0.3 | ralimetinib 0.057 | [11] -0.053 | [12] -0.387 | [13] 0.046 | pinometostat 0.149 | [15] 0.018

EIF4EBP2 (UniProt Q13542)
inactive: erlotinib -0.068 | [1] 0.022 | [2] 0.154 | [3] 0.033 | [4] -0.059 | [5] 0.099 | [6] 0.079 | [7] 0.038 | [8] -0.059 | [9] -0.05 | IRAK-1-4 Inhibitor I -0.139 | ibrutinib 0.038 | [10] -0.106 | ralimetinib -0.165 | [11] -0.238 | [12] 0.141 | [13] 0.012 | pinometostat 0.044 | [14] 0.022 | [15] 0.066

The list continues:

EIF6 (UniProt P56537)
inactive: erlotinib 0.019 | [1] -0.095 | [2] -0.03 | [3] 0.011 | [4] 0.062 | [5] 0.047 | [6] -0.062 | [7] -0.02 | [8] 0.077 | [9] 0.096 | IRAK-1-4 Inhibitor I 0.044 | ibrutinib 0.04 | [10] 0.015 | ralimetinib -0.036 | [11] 0.058 | [12] 0.08 | [13] 0.006 | pinometostat -0.026 | [14] 0.053 | [15] 0.09

EHBP1L1 (UniProt Q8N3D4)
inactive: erlotinib -0.005 | [1] 0.088 | [2] 0.06 | [3] -0.005 | [4] 0.057 | [5] 0.026 | [6] -0.013 | [7] -0.03 | [8] -0.1 | [9] -0.116 | IRAK-1-4 Inhibitor I -0.044 | ibrutinib -0.054 | [10] -0.077 | ralimetinib 0.083 | [11] -0.001 | [12] -0.034 | [13] 0.05 | pinometostat 0.086 | [15] 0.028

EFTUD2 (UniProt Q15029)
inactive: erlotinib -0.031 | [1] -0.01 | [2] -0.01 | [3] 0.024 | [4] -0.037 | [5] 0.033 | [6] -0.031 | [7] -0.043 | [8] -0.011 | [9] 0.052 | IRAK-1-4 Inhibitor I 0.022 | ibrutinib 0.023 | [10] 0.047 | ralimetinib -0.03 | [11] 0.032 | [12] 0.106 | [13] -0.008 | pinometostat -0.029 | [14] 0.018 | [15] 0.004
